This is one part of the list.
Tests used:
Assay in all cases: log2 fold change, soluble protein after heating vs DMSO (PISA); higher = thermal stabilisation; K562 lysate, 10 uM; active = over 0.2 and 3.5 SD of the protein, either way, in both replicates (recomputed)
alvocidib = compound: CN1CC[C@H](c2c(O)cc(O)c3c(=O)cc(-c4ccccc4Cl)oc23)[C@H](O)C1 [alvocidib]
In short: (§1)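 Quantification was by TMTpro 16plex LC-MS/MS with equalised channel sums, applied to the supernatant after 21,000xg for 90 min. Samples were crude K562 extract at 1 mg/mL protein in PBS pH 7.4 with 1 mM MgCl2, treated with 10 μM compound for 30 min, heated for 3 min across 48°C-58°C, pooled and brought to 0.5% NP-40 at 4°C. Values are log-two fold changes in thermal stability relative to solvent controls, from duplicates.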

The chains behind the UniProt entries cited, without tags or fusion partners. Where a name states a change or a piece, a line headed by the entry shows the natural chain unless it says otherwise.
UniProt Q05397, whole entry, looked up: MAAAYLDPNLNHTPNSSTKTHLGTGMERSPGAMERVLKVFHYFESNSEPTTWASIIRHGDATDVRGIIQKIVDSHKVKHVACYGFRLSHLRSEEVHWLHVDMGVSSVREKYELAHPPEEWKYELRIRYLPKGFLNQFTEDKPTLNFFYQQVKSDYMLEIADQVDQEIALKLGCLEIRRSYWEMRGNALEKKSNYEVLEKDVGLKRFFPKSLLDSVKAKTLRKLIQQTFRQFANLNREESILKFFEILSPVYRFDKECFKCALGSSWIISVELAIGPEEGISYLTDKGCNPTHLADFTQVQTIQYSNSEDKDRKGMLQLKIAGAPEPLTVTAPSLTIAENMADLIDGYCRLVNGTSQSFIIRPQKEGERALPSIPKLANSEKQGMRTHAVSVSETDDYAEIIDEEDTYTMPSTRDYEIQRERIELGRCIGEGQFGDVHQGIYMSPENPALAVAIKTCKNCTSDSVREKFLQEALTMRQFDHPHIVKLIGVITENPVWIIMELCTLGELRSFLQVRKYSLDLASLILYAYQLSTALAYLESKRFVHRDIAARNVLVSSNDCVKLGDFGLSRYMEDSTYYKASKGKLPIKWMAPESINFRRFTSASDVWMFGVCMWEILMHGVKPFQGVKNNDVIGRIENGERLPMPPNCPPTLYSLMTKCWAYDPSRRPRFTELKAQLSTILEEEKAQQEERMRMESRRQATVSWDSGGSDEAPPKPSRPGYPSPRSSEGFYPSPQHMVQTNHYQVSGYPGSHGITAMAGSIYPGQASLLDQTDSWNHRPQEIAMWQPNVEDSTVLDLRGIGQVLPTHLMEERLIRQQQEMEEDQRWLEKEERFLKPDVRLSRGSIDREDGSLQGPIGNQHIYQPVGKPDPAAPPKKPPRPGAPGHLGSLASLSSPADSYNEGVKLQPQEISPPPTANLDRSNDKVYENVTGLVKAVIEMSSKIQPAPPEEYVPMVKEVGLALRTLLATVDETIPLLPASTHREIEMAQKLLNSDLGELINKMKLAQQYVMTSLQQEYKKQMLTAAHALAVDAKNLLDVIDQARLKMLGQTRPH
UniProt Q9ULL5: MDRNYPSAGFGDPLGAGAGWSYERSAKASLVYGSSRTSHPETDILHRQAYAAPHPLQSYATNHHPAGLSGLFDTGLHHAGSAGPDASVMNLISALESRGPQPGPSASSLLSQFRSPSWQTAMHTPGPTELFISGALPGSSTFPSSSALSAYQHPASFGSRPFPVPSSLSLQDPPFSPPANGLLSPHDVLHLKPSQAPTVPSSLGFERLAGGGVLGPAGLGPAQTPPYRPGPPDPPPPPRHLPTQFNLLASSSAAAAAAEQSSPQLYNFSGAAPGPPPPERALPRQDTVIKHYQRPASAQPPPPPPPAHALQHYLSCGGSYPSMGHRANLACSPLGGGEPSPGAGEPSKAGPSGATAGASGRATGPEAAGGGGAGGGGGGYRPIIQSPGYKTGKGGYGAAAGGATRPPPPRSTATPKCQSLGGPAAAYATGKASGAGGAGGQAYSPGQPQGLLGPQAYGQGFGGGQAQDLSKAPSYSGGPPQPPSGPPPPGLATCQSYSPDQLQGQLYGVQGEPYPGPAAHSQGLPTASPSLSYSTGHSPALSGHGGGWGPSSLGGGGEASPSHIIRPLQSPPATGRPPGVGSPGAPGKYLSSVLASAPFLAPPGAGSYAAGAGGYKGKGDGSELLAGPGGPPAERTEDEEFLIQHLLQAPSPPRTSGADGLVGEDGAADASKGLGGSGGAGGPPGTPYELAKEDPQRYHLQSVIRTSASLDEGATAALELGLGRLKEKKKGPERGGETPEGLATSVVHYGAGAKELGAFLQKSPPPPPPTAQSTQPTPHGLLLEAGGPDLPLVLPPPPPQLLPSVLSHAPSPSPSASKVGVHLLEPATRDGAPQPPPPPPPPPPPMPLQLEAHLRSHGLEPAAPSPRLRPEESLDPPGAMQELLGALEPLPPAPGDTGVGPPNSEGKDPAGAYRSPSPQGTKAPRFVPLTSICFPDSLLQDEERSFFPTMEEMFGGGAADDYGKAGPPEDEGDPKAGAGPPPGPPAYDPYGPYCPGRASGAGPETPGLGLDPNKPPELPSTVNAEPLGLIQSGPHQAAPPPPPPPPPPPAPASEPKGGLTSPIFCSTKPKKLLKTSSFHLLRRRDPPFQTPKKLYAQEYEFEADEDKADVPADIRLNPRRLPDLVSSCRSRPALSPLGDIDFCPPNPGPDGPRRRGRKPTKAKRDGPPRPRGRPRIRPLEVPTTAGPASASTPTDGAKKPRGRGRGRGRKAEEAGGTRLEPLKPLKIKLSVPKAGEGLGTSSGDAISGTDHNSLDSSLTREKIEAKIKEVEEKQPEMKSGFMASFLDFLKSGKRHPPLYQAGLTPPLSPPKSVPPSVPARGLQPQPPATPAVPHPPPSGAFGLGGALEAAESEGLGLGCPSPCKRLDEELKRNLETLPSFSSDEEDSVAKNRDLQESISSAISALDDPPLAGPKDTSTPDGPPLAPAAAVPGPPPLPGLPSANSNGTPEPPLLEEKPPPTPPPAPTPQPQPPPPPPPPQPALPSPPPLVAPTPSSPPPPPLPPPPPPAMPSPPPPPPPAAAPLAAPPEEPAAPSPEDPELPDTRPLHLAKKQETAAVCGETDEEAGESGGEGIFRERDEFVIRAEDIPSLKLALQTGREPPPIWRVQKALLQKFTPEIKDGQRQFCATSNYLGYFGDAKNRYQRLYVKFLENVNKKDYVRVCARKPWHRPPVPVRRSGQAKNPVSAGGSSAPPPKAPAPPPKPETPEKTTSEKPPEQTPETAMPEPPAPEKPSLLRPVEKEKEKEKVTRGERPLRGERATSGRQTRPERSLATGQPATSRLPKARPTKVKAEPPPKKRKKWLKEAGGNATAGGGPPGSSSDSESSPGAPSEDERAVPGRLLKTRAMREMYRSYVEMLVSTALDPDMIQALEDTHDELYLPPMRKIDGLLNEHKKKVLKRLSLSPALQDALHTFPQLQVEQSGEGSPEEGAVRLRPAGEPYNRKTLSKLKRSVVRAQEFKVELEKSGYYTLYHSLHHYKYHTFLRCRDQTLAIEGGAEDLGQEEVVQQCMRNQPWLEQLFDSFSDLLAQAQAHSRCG
UniProt Q3MIT2: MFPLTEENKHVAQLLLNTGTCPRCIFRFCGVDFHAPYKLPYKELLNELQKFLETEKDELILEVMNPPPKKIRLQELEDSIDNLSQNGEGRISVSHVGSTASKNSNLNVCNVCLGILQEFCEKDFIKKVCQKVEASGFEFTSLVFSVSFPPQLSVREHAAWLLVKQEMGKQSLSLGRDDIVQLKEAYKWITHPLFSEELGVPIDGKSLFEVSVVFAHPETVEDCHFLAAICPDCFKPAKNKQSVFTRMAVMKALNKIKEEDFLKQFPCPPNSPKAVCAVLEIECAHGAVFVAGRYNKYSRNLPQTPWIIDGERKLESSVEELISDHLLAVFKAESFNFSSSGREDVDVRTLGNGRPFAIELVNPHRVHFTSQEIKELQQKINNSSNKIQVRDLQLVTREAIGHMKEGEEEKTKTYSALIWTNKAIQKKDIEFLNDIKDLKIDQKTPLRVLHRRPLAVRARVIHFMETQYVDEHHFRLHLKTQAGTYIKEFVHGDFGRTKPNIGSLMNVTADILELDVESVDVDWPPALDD
UniProt P79522: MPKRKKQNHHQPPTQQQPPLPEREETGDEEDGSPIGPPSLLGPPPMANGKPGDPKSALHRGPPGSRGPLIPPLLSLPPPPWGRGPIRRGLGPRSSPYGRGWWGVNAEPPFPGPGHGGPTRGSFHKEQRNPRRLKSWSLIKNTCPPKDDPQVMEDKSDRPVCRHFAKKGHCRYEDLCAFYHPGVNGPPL
UniProt P06454: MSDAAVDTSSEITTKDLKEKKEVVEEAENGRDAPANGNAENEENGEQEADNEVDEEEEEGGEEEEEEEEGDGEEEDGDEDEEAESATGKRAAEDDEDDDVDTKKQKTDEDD
UniProt Q6NUJ5: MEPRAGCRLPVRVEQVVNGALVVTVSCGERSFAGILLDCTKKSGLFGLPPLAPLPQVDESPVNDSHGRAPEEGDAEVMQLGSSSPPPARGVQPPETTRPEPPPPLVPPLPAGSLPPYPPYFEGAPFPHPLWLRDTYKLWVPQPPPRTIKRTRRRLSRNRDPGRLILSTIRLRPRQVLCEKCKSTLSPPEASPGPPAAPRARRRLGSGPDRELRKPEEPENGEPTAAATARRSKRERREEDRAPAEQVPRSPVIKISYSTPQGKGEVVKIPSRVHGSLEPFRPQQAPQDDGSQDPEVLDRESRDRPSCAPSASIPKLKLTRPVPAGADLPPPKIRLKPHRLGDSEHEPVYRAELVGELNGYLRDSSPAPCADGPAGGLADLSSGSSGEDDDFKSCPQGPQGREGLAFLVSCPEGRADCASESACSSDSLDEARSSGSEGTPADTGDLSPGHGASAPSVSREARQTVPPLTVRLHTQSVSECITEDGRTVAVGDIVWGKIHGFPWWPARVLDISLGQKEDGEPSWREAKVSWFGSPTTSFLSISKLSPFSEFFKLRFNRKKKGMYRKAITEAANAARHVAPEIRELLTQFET
UniProt Q15185: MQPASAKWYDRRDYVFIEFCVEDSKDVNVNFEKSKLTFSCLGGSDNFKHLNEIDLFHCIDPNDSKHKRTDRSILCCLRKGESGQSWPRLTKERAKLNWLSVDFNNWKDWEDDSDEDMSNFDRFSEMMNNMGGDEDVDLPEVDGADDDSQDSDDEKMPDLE
UniProt Q15008: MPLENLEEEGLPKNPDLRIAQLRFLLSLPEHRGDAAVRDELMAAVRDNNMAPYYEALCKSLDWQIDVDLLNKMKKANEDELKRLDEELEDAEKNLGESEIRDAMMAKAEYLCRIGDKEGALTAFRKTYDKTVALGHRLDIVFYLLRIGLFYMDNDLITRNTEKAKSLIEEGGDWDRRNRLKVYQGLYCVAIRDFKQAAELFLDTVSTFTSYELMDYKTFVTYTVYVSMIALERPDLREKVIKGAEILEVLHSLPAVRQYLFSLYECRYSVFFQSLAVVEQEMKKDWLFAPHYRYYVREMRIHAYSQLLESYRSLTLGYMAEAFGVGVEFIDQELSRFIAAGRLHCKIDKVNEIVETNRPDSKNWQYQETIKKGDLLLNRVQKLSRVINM
UniProt Q14289, whole entry, looked up: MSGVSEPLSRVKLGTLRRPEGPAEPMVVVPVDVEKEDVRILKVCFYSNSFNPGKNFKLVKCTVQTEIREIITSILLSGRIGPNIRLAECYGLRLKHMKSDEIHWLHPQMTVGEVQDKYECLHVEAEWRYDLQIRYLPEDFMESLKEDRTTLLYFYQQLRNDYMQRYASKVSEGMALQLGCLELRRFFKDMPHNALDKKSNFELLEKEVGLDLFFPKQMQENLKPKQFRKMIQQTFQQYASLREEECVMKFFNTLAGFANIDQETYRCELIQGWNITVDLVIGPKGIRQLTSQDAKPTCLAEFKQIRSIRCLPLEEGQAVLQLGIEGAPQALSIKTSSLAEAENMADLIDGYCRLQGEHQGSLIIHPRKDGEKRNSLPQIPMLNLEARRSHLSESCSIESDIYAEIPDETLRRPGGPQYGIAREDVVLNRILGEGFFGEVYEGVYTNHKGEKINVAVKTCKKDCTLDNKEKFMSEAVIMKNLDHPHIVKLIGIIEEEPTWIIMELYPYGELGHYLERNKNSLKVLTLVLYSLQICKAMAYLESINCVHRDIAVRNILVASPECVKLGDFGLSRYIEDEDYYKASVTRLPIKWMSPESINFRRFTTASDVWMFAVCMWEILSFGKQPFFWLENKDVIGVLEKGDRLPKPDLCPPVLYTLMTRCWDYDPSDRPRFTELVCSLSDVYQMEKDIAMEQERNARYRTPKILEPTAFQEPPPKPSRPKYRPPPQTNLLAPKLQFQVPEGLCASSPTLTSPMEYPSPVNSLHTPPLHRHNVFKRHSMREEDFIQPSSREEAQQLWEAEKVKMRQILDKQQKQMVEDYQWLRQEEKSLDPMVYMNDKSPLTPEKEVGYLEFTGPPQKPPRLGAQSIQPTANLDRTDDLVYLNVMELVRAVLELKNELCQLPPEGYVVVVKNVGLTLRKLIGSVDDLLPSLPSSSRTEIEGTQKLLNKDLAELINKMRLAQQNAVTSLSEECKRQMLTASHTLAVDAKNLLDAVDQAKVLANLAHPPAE

Tubastatin A = compound: CN1CCc2c(c3ccccc3n2Cc2ccc(C(=O)NO)cc2)C1 [Tubastatin A]
In short: as §1

[1] = compound: CNC(=O)C1=CC=CC=C1NC2=NC(=NC=C2Cl)NC3=C(C=C(C=C3)N4CCOCC4)OC
In short: as §1

defactinib = compound: CNC(=O)c1ccc(Nc2ncc(C(F)(F)F)c(NCc3nccnc3N(C)S(C)(=O)=O)n2)cc1 [defactinib]
In short: as §1

[2] = compound: CNc1nc(-c2ccc3c(N)n[nH]c3c2)cc(N2C[C@@H](C(=O)NC3CCCCC3)CC[C@H]2C)n1
In short: as §1

encorafenib = compound: COC(=O)N[C@@H](C)CNc1nccc(-c2cn(C(C)C)nc2-c2cc(Cl)cc(NS(C)(=O)=O)c2F)n1 [encorafenib]
In short: as §1

[3] = compound: COC(=O)[C@H](CCSC)NC(=O)C1=C(C=C(C=C1)NC[C@H](CS)N)C2=CC=CC=C2
In short: as §1

alisertib = compound: COc1cc(Nc2ncc3c(n2)-c2ccc(Cl)cc2C(c2c(F)cccc2OC)=NC3)ccc1C(=O)O [alisertib]
In short: as §1

[4] = compound: COc1cc2nc(-c3cc(F)ccc3O)nc(N[C@@H]3CNC[C@H]3C(C)(C)O)c2cc1OC
In short: as §1

gefitinib = compound: COc1cc2ncnc(Nc3ccc(F)c(Cl)c3)c2cc1OCCCN1CCOCC1 [gefitinib]
In short: as §1

lapatinib = compound: CS(=O)(=O)CCNCc1ccc(-c2ccc3ncnc(Nc4ccc(OCc5cccc(F)c5)c(Cl)c4)c3c2)o1 [lapatinib]
In short: as §1

pictilisib = compound: CS(=O)(=O)N1CCN(Cc2cc3nc(-c4cccc5[nH]ncc45)nc(N4CCOCC4)c3s2)CC1 [pictilisib]
In short: as §1

crizotinib = compound: C[C@@H](Oc1cc(-c2cnn(C3CCNCC3)c2)cnc1N)c1c(Cl)ccc(F)c1Cl [crizotinib]
In short: as §1

[5] = compound: C[C@H](C1=CC=C(C=C1)C(=O)NC2=C3C=CNC3=NC=C2)N
In short: as §1

duvelisib = compound: C[C@H](Nc1ncnc2nc[nH]c12)c1cc2cccc(Cl)c2c(=O)n1-c1ccccc1 [duvelisib]
In short: as §1

gandotinib = compound: Cc1cc(Nc2cc(CN3CCOCC3)c3nc(C)c(Cc4ccc(Cl)cc4F)n3n2)n[nH]1 [gandotinib]
In short: as §1

tozasertib = compound: Cc1cc(Nc2cc(N3CCN(C)CC3)nc(Sc3ccc(NC(=O)C4CC4)cc3)n2)n[nH]1 [tozasertib]
In short: as §1

bafetinib = compound: Cc1ccc(NC(=O)c2ccc(CN3CC[C@H](N(C)C)C3)c(C(F)(F)F)c2)cc1Nc1nccc(-c2cncnc2)n1 [bafetinib]
In short: as §1

[6] = compound: Cc1cccc(CC(=O)N2CCc3c2ccc(-c2cn(C)c4ncnc(N)c24)c3F)n1
In short: as §1

doramapimod = compound: Cc1ccc(-n2nc(C(C)(C)C)cc2NC(=O)Nc2ccc(OCCN3CCOCC3)c3ccccc23)cc1 [doramapimod]
In short: as §1

Measured: log2 fold change

PTK2 (UniProt Q05397)
inactive: alvocidib 0.02 | Tubastatin A -0.033 | [2] -0.055 | encorafenib -0.057 | [3] -0.126 | alisertib 0.17 | [4] 0.113 | gefitinib -0.022 | lapatinib -0.116 | pictilisib 0.038 | crizotinib 0.414 | [5] 0.007 | duvelisib -0.076 | gandotinib 0.396 | tozasertib 0.026 | bafetinib -0.008 | [6] -0.117
active: [1] 0.54 | defactinib 0.518

PRR12 (UniProt Q9ULL5)
inactive: alvocidib 0.04 | Tubastatin A -0.12 | pictilisib -0.03 | crizotinib 0.008 | [5] -0.043 | gandotinib 0.057 | doramapimod 0.038 | bafetinib -0.333 | [6] 0.132

PUS10 (UniProt Q3MIT2)
inactive: alvocidib 0.033 | Tubastatin A -0.035 | [1] 0.076 | defactinib -0.064 | [2] 0.009 | encorafenib -0.006 | [3] -0.029 | alisertib 0.039 | [4] -0.036 | gefitinib -0.009 | lapatinib 0 | pictilisib 0.04 | crizotinib -0.036 | [5] 0.081 | duvelisib 0.013 | gandotinib -0.059 | tozasertib 0.034 | doramapimod -0.022 | bafetinib 0.017 | [6] -0.033

PRR14L (UniProt Q5THK1)
inactive: alvocidib 0.082 | Tubastatin A 0.018 | [1] 0.007 | defactinib -0.068 | [2] 0.07 | encorafenib 0.022 | [3] -0.008 | alisertib -0.059 | gefitinib -0.084 | pictilisib -0.033 | crizotinib 0.015 | [5] 0.196 | duvelisib 0.04 | gandotinib -0.174 | tozasertib 0.07 | doramapimod -0.025 | bafetinib 0 | [6] -0.224

PRR3 (UniProt P79522)
inactive: defactinib -0.035 | alisertib -0.002 | [4] 0 | gefitinib 0.183 | lapatinib -0.059 | crizotinib -0.067 | doramapimod 0.215

PSMC3 (UniProt E9PLG2)
inactive: defactinib -0.008

PTPA (UniProt Q5T948)
inactive: Tubastatin A -0.247 | defactinib -0.165 | [4] 0.046 | lapatinib -0.062

PRRC2B (UniProt H0Y412)
inactive: Tubastatin A 0.009 | [1] 0.095

PTMA isoform 2 (UniProt P06454)
inactive: pictilisib -0.053 | bafetinib -0.02

PWWP2B (UniProt Q6NUJ5)
inactive: alvocidib -0.004 | [2] -0.025 | [4] 0.037 | lapatinib 0.012 | [5] -0.336 | duvelisib -0.014 | gandotinib -0.385 | [6] 0.23

PTK2 isoform 2 (UniProt Q05397)
inactive: [1] 0.003 | [2] 0.018 | encorafenib -0.058 | [3] -0.129 | [4] 0.053 | lapatinib 0.049 | pictilisib 0.067 | duvelisib 0.298 | tozasertib 0.125 | bafetinib -0.087

PSME3 (UniProt K7EMD0)
inactive: alisertib -0.06 | [4] 0.052 | gefitinib 0.101 | lapatinib -0.14

PTGES3 isoform 4 (UniProt Q15185)
inactive: Tubastatin A -0.311 | pictilisib -0.1 | bafetinib 0.046

PTPRB isoform 3 (UniProt P23467)
inactive: [2] 0.057 | alisertib 0 | [4] -0.196 | gefitinib -0.04 | lapatinib -0.034 | pictilisib -0.484 | duvelisib 0.172 | bafetinib -0.69

Fetched one by one from the list above (two):
PTK2 isoform 2 (UniProt Q05397)
inactive: [1] 0.003 | [2] 0.018 | encorafenib -0.058 | [3] -0.129 | [4] 0.053 | lapatinib 0.049 | pictilisib 0.067 | duvelisib 0.298 | tozasertib 0.125 | bafetinib -0.087

PWWP2B (UniProt Q6NUJ5)
inactive: alvocidib -0.004 | [2] -0.025 | [4] 0.037 | lapatinib 0.012 | [5] -0.336 | duvelisib -0.014 | gandotinib -0.385 | [6] 0.23

Additional results:

PSMD6 (UniProt Q15008)
inactive: alvocidib -0.277 | alisertib -0.022 | [4] 0.019 | gefitinib -0.034 | lapatinib 0.139 | pictilisib -0.075 | crizotinib -0.166 | [5] 0 | gandotinib -0.024 | doramapimod 0.134 | bafetinib 0.138 | [6] 0.073

PTK2B (UniProt Q14289)
active: [1] 0.401 | gandotinib 0.385
inactive: Tubastatin A -0.071 | defactinib 0.315 | [2] -0.063 | encorafenib -0.048 | [3] -0.007 | alisertib 0.093 | [4] 0.103 | gefitinib -0.056 | lapatinib -0.075 | pictilisib -0.043 | [5] -0.026 | duvelisib -0.034 | tozasertib 0.019 | bafetinib 0.098 | [6] -0.05

From the supplement of paper PMC10849652
